At least one compound was matched to its structure with a doubt left.
Test system: CHO cells
Assay: Compound screening, endogenous response of CHO cells (CRE/firefly/V2 and CRE/ren/beta2), Example 3
Format: cell-based, Chinese hamster ovary
Procedure: Stable mammalian cell lines transfected with c-AMP responsive reporter genes containing either the firefly or renilla luciferase reporter proteins (CRE-firefly and CRE-ren) were generated.
These receptors are members of the super family of G-protein coupled receptors which interact with the stimulatory G-protein alpha unit.
Firefly luciferase and/or renilla luciferase producing CHO (Chinese hamster ovary) cells are cultured in tissue culture flasks and grown to 90% confluency. Twenty-four hours before the assay, the cells are quiesced in serum-free medium containing 1 mg/ml BSA (bovine serum albumin). Immediately prior to the assay, cells are removed with HBSS/EDTA (Hanks balanced salt solution containing EDTA), centrifuged and resuspended in 10 ml phenol red-free and serum-free medium supplemented with 1 mg/ml BSA. Next, the cells are plated into a 96 well microtiter plate at 90 μl/well and returned to the incubator. After 1 hour, 10 μl of the test compound, made up in either water or phenol red-free medium, is added. The microplates then are further incubated for 4 hours. Finally, the firefly luciferase detection reagent is made up and 100 μl of this detection solution is added to each well. After 10 minutes, the microplate is counted for firefly luciferase activity. […] The plate is left for 15 minutes in the dark and then counted for renilla luciferase activity. […]

N[C@@H](CCC(=O)O)C(=O)O [Glutamate]
agonist activity at these cells: not agonists active at these cells
